Data as given in PubChem BioAssay AID504791 (Drosophila RNAi Screening Center, 2011).
The screen tested about 23,000 reagents; this is a random part of those with a known target gene and a result. Over the whole deposit, 199 (0.86%) were called active. 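Plate-scaled ratios behind the calls are not deposited; printed light signals are raw; many rows marked increased or decreased are still called inactive.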 Reagents against one gene are numbered here. A plus sign joins genes that one reagent is predicted to hit. The record does not give: the direction of the score.

- Purpose: 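Genes whose knock-down strengthens or weakens small-RNA reporter silencing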 (primary screen)
- Cells: Drosophila S2-derived reporter cells
- Knock-down reagent: long dsRNA against Drosophila genes, about 150-250 ng dsRNA per well (siRNA assay); about 80-120 ng (miRNA assay)
- Time to read-out: about 5 days (siRNA assay); about 4 days (miRNA assay)
- Conditions: copper sulfate induction of reporters: 25 µM (siRNA assay); 200 mM stated (miRNA assay), 1-2 days before reading
- Read-out: 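Per-well ratio of Renilla over firefly light, expressed relative to that plate's average ratio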
- Rule for the call: 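First-pass picks had plate-scaled ratios over 1.5 for the siRNA assay, over 1.6 for the miRNA assay, or under 0.6; two distinct dsRNAs had to score alike on retest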

Target gene,dsRNA no.,stable siRNA reporter change,miRNA reporter change,"stable assay Renilla, run 1 (luminescence)","stable assay firefly, run 1 (luminescence)",Call
Ubc4 (Ubiquitin conjugating enzyme 4),1,,,9389,5.15e5,inactive
CG42383,1,,,7758,4.00e5,inactive
wa-cup (walker cup),1,,,7646,6.55e5,inactive
bora (aurora borealis),1,,reporter ratio raised past the hit cutoff,9318,3.20e5,active
Nct (Nicastrin),1,,,11364,4.19e5,inactive
Irc (Immune-regulated catalase),1,,,8823,2.67e5,inactive
14-3-3epsilon,1,,,6775,2.98e5,inactive
UQCR-Q (Ubiquinol-cytochrome c reductase ubiquinone-binding protein),1,,,6983,5.00e5,inactive
CAH2 (Carbonic anhydrase 2),1,,,6178,2.94e5,inactive
CG2278,1,,,6319,3.08e5,inactive
CG2614,1,,,5079,6.12e5,inactive
CG5597,1,,,10219,1.61e6,inactive
Madm (MLF1-adaptor molecule),1,,,7258,4.22e5,inactive
amrt (amaretto),1,,,5180,4.95e5,inactive
Wdr59 (WD repeat domain 59),1,,,6275,5.70e5,inactive
Adk1 (Adenosine kinase 1),1,,,6384,4.27e5,inactive
CG5357 (retired record),1,,,6431,3.10e5,inactive
Usp16-45 (Ubiquitin specific protease 16/45),1,,,8102,4.66e5,inactive
Su(var)2-HP2,1,,,8968,4.65e5,inactive
scat (scattered),1,,,7370,7.75e5,inactive
CG10383,1,,,6634,1.51e6,inactive
CG10674,1,,,6574,4.09e5,inactive
CG6005,1,,,8483,4.55e5,inactive
PAPLA1 (Phosphatidic Acid Phospholipase A1),1,,,26684,5.09e5,inactive
PAPLA1 (Phosphatidic Acid Phospholipase A1),2,,,8022,5.18e5,inactive
CG6984,1,,,11314,5.55e5,inactive
CG33467,1,,,3903,3.22e5,inactive
CG33467,2,,,4004,4.29e5,inactive
CG3651,1,,,6555,4.03e5,inactive
p38c (p38c MAP kinase),1,,,3795,3.83e5,inactive
Tsp96F (Tetraspanin 96F),1,,,8330,4.16e5,inactive
S (Star),1,,,5579,2.68e5,inactive
CG15861,1,,,6948,5.21e5,inactive
CG31661,1,,,9261,4.93e5,inactive
CG8500,1,,,6762,3.64e5,inactive
CG14893,1,,,7334,4.98e5,inactive
ND-15 (NADH dehydrogenase (ubiquinone) 15 kDa subunit),1,,,10408,8.63e5,inactive
CG1545,1,,,10337,4.89e5,inactive
Swip-1 (Swiprosin-1),1,,,6007,1.34e6,inactive
Swip-1 (Swiprosin-1),2,,,6775,3.36e5,inactive
CG17593,1,,,6396,5.45e5,inactive
"DCTN6-p27 (Dynactin 6, p27 subunit)",1,reporter ratio raised past the hit cutoff,,5619,78082,inactive
"DCTN6-p27 (Dynactin 6, p27 subunit)",2,,,4008,3.25e5,inactive
CG11286,1,,,6550,3.73e5,inactive
atms (antimeros),1,,,6043,3.47e5,inactive
wfs1 (wolfram syndrome 1),1,,,7464,3.78e5,inactive
Fic (Fic domain-containing protein),1,,,42973,4.90e5,inactive
Ntf-2 (Nuclear transport factor-2),1,,,9151,3.40e5,inactive
Dbp45A (DEAD box protein 45A),1,,,8145,5.06e5,inactive
CG9458,1,,,6438,4.12e5,inactive
wcy (wacky),1,,,9665,4.29e5,inactive
CG6271,1,,,9253,3.52e5,inactive
CG43328,1,,,7419,4.74e5,inactive
Gyc76C + CG42637,1,,,8801,3.53e5,inactive
Obp56i (Odorant-binding protein 56i),1,,,4763,4.54e5,inactive
Cht11 (Chitinase 11),1,,,5080,2.99e5,inactive
Cnep1r1 (CTD nuclear envelope phosphatase 1 regulatory subunit 1),1,,,5947,4.40e5,inactive
heph (hephaestus),1,,,7266,4.00e5,inactive
heph (hephaestus),2,,,6738,2.48e5,inactive
heph (hephaestus),3,,,5058,2.41e5,inactive
heph (hephaestus),4,,,5011,3.64e5,inactive
CG5023,1,,,5967,3.62e5,inactive
Mdh1 (retired record),1,,,7287,3.94e5,inactive
MED26 (Mediator complex subunit 26),1,,,5603,2.28e5,inactive
MED26 (Mediator complex subunit 26),2,,,4163,2.27e5,inactive
MED26 (Mediator complex subunit 26),3,,,4555,1.82e5,inactive
app (approximated),1,,,4934,2.98e5,inactive
app (approximated),2,,,7063,4.42e5,inactive
app (approximated),3,,,6612,4.03e5,inactive
CG7849,1,,,6455,4.09e5,inactive
"Grx1t (Glutaredoxin 1, testis-specific)",1,,,6439,3.80e5,inactive
Sf3a2 (Splicing factor 3a subunit 2),1,,,11193,6.97e5,inactive
CG7611,1,,,3904,3.60e5,inactive
CG32075,1,,,5926,4.04e5,inactive
CG31140,1,,,6955,7.34e5,inactive
CG31140,2,,,10113,4.83e5,inactive
CG31140,3,,,7319,3.59e5,inactive
CG3594,1,,,7850,2.01e6,inactive
CG3594,2,,,9632,5.91e5,inactive
p120ctn (p120 catenin),1,,,6099,3.03e5,inactive
CG5122,1,,,7365,2.94e5,inactive
Ccdc58 + CG34116,1,,,8186,4.03e5,inactive
klg (klingon),1,,,3512,4.13e5,inactive
klg (klingon),2,,,6682,3.31e5,inactive

4 entries from above, set out differently:
CG33467 #1
- stable assay Renilla, run 1 (luminescence): 3903
- stable assay firefly, run 1 (luminescence): 3.22e5
- Call: inactive

CG33467 #2
- stable assay Renilla, run 1 (luminescence): 4004
- stable assay firefly, run 1 (luminescence): 4.29e5
- Call: inactive

CG3651
- stable assay Renilla, run 1 (luminescence): 6555
- stable assay firefly, run 1 (luminescence): 4.03e5
- Call: inactive

p38c (p38c MAP kinase)
- stable assay Renilla, run 1 (luminescence): 3795
- stable assay firefly, run 1 (luminescence): 3.83e5
- Call: inactive
